The results in this text go back to patent publication US20060293395A1, “Methods for treating a mammal before, during and after cardiac arrest” (priority 2004, published 2006).

Data set [1] concerns Male Sprague-Dawley rats. The data set can be described thus: Example 1: post-resuscitation myocardial dysfunction after VF cardiac arrest, drug infusion for 240 min post-resuscitation.
Data set [2] has as its system male domestic pigs. Put plainly: Example 3: dobutamine vs levosimendan in the porcine model of cardiac arrest and cardiac resuscitation. As to conditions: FIG. 21. It counts as in vivo, pig. The procedure: Experimental Preparation: The experiments were performed in the porcine model of cardiac arrest and cardiac resuscitation which has been extensively exercised. (21,22). […] Anesthesia was initiated by intramuscular injection of ketamine (20 mg kg^−1) and was completed by ear vein injection of sodium pentobarbital (30 mg kg^−1). Additional 8 mg kg^−1 doses of sodium pentobarbital were injected to maintain anesthesia at intervals of one hour. A cuffed endotracheal tube was advanced into the trachea. Animals were mechanically ventilated with a volume of 15 mL kg^−1, peak airway flow of 40 L min^−1, and FiO2 of 0.2 with the aid of a volume-controlled ventilator (Model MA-1, Puritan-Bennett, Carlsbad, Calif.). End-tidal PCO2 (PETCO2) was monitored with an infrared analyzer (Model 01R-7101A, Nihon Kohden Corp, Tokyo, Japan). Respiratory frequency was adjusted to maintain PETCO2 between 35 and 40 mmHg. Blood temperature was maintained at 37±0.5° C. with the aid of infrared heating lamps, as required.
For the measurement of left ventricular functions, a 5.5/7.5 MHz biplane with pulse-wave Doppler transesophageal echocardiographic tranducer with 4-way flexure (Model 21363A, Hewlett-Packard Co. Medical Products Group, Andover, Mass.) was advanced from the incisor teeth into the esophagus for a distance of approximately 40 cm. […] The electrocardiographic (EKG) lead II was continuously recorded. […]

Take `C[C@@H]1CC(=O)NN=C1c1ccc(NN=C(C#N)C#N)cc1` [Levosimendan]: the “End Tidal CO2 [EtCO2]” value in data set [1] (PR10) is recorded as 33 ± 6 mmHg; in data set [1] (PR40), 30 ± 6 mmHg; in data set [1] (PR70) it was 35 ± 3 mmHg; in data set [1] (PR120) it was 34 ± 4 mmHg; in data set [1] (PR180), 32 ± 5 mmHg; in data set [1] (PR240) it was 30 ± 7 mmHg. Moreover, the PaCO2 in data set [1] (PR40) is 32.3 ± 6.7 mmHg; in data set [1] (PR120), 33.4 ± 6.2 mmHg; in data set [1] (PR240), 30.7 ± 8.7 mmHg. The PaO2 came out at 328.2 ± 71.7 mmHg in data set [1] (PR40), 383.0 ± 43 mmHg in data set [1] (PR120) and 391.6 ± 60.4 mmHg in data set [1] (PR240). Besides, the aLactate was 3.9 ± 1.8 mmol/L in data set [1] (PR40), 1.6 ± 0.6 mmol/L in data set [1] (PR120) and 1.4 ± 0.6 mmol/L in data set [1] (PR240). The pHa in data set [1] (PR40 (post-resuscitation)) was 7.40 ± 0.02 units; in data set [1] (PR120) it was 7.40 ± 0.04 units; in data set [1] (PR240), 7.39 ± 0.03 units. Also, in data set [2], the coronary venous lactate entry is on record as “No differences”.

`CC(CCc1ccc(O)cc1)NCCc1ccc(O)c(O)c1` (centres unmarked) [Dobutamine]: the “End Tidal CO2 [EtCO2]” value in data set [1] (PR10) turned out to be 33 ± 5 mmHg; in data set [1] (PR40), 35 ± 3 mmHg; in data set [1] (PR70) it was 35 ± 4 mmHg; in data set [1] (PR120), 38 ± 1 mmHg; in data set [1] (PR180) it was 36 ± 2 mmHg; in data set [1] (PR240), 35 ± 3 mmHg. For the same compound, the PaCO2 came to 36.6 ± 3.8 mmHg in data set [1] (PR40), 39.2 ± 4.5 mmHg in data set [1] (PR120) and 37.4 ± 5.9 mmHg in data set [1] (PR240). The PaO2 in data set [1] (PR40) is given as 342.2 ± 62.7 mmHg; in data set [1] (PR120), 389.9 ± 62.3 mmHg; in data set [1] (PR240), 380.5 ± 40.2 mmHg. The aLactate in data set [1] (PR40) is 2.2 ± 0.6 mmol/L; in data set [1] (PR120), 1.2 ± 0.4 mmol/L; in data set [1] (PR240), 1.1 ± 0.5 mmol/L. Besides, the values for the pHa in data set [1] (PR40 (post-resuscitation)), in data set [1] (PR120) and in data set [1] (PR240) were 7.40 ± 0.05 units, 7.39 ± 0.04 units and 7.41 ± 0.05 units, respectively. Also, the coronary venous lactate result in data set [2] is recorded as “No differences”.
